Laboratory results as given in PubChem BioAssay AID521 (Sanford-Burnham Center for Chemical Genomics, 2006).
About 730 (0.66%) of roughly 110,000 compounds were called active. The shares of active, inactive and inconclusive entries below differ from those in the screen. Cut-off read from the data, not from the text of the source: active = inhibition above about 50%; inconclusive = no clear call, values can overlap the other calls; inactive = below that.

Protein sequences, listed by entry. Tags and fused reporters are not part of them. Lines headed by an entry give the natural chain unless they say otherwise; changes in a name come on top.
UniProt P35236: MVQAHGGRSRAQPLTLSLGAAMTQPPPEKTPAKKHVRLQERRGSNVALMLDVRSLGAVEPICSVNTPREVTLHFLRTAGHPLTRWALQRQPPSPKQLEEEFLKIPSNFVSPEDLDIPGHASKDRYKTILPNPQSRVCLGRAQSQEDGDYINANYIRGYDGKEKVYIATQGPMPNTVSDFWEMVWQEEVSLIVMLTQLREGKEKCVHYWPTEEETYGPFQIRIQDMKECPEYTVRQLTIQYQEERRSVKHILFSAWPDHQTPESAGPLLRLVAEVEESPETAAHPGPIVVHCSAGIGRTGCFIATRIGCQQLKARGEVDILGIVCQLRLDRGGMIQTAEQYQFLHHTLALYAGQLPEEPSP

The molecules below were run against Tyrosine-protein phosphatase non-receptor type 7 (Homo sapiens) (UniProt P35236) (assay: inhibitors of human HePTP phosphatase, primary screen, biochemical, absorbance, leukemia target (AID 521;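 note: plate controls were vehicle for no effect and reference inhibitor for full effect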)). Conditions: recombinant HePTP phosphatase activity, OD absorbance; at 20 µM; hits give high values.

Which inhibition does the source give for `O=C1c2ccccc2-c2onc3ccc(NCCCn4ccnc4)c1c23` here?
The inhibition was inconclusive: 60%.

How did the inhibition turn out when `CCc1ccc(NC2=C(Cl)C(=O)N(c3ccccc3C)C2=O)cc1` was run?
Its inhibition is inactive: 10.3%.

`O=C(NC(=S)NC1CCSC1=O)c1ccco1` (centres undefined) was tested. Which inhibition did it give?
The inhibition was active: 103%.

With `CCCCCC#CCC#CCC#CCC#CCCCC(=O)O` as the molecule, how does the inhibition read?
Its inhibition is inconclusive: 102%.
